{"source": "PubChem BioAssay (NCATS)", "note": "Some of the results follow. Further columns of the screen follow, without active or inactive calls. Most of these compounds were active or inconclusive in the main read-out, so they are no random draw. Potencies come from curve fits of mixed quality, noted in brackets.", "data": [{"test": "qHTS Assay for Modulators of Human Peripheral Myelin Protein 22 (PMP22) Expression/Activity (AID 1967)", "details": "Cell-based PMP22 reporter, dual-color luciferase ratio; measured here: green reporter channel AC50; mouse Pmp22 promoter in mouse Schwann cells", "method_in_brief": "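Readout is the corrected green/red luminescence ratio after 24 h compound exposure, normalised to untreated cells (0%). Engineered MSC80 mouse Schwann cells express green luciferase from the mouse Pmp22 promoter and red luciferase from EF-alpha as internal control.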", "values": [{"smiles": "NC(=O)C1=CN(C2OC(COP(=O)(O)OP(=O)(O)OC[C@H]3O[C@@H](n4cnc5c(N)ncnc54)[C@H](OP(=O)(O)O)[C@H]3O)C(O)C2O)C=CC1", "note": "(stereo partly specified)", "AC50": "6.75 µM [rising, full curve, poor fit]"}, {"smiles": "O=C(O)c1cc[c]([Hg][Cl])cc1", "AC50": "47.8 µM [falling, partial curve]"}, {"smiles": "Nc1ccc(CCN2CCN(c3cccc(C(F)(F)F)c3)CC2)cc1", "AC50": "67.5 µM [falling, partial curve, poor fit]"}, {"smiles": "CC(N)Cc1c[nH]c2ccc(OCc3cccs3)cc12", "note": "(stereo unspecified)", "AC50": "47.8 µM [falling, partial curve]"}, {"smiles": "CCCn1c(C)c(C(=O)c2ccc3ccccc3c2)c2ccccc21", "AC50": "33.8 µM [falling, full curve]"}, {"smiles": "COc1ccc(CNC(=O)/C=C/c2ccc3[nH]cc(CCN(C)C)c3c2)cc1", "AC50": "84.9 µM [falling, single point]"}, {"smiles": "CN(C)CCC=C1c2ccccc2CCc2ccccc21", "AC50": "75.7 µM [falling, partial curve]"}, {"smiles": "C[Se]C[C@H](N)C(=O)O", "AC50": "37.9 µM [falling, full curve]"}, {"smiles": "CS(=N)(=O)CC[C@H](N)C(=O)O", "note": "(stereo partly specified)", "AC50": "30.1 µM [rising, single point]"}, {"smiles": "c1ccc2c(N3CCNCC3)cccc2c1", "AC50": "42.6 µM [falling, full curve]"}, {"smiles": "CC(=O)[C@H]1CC[C@H]2[C@@H]3CCC4=CC(=O)CC[C@]4(C)[C@H]3CC[C@]12C", "AC50": "75.7 µM [falling, single point]"}]}]}
